The values that follow come from publication PMC5807360.

By UniProt entry, the sequences of proteins in these tests, tags left out. Residues count along the entry.
UniProt O48849, residues 23-890: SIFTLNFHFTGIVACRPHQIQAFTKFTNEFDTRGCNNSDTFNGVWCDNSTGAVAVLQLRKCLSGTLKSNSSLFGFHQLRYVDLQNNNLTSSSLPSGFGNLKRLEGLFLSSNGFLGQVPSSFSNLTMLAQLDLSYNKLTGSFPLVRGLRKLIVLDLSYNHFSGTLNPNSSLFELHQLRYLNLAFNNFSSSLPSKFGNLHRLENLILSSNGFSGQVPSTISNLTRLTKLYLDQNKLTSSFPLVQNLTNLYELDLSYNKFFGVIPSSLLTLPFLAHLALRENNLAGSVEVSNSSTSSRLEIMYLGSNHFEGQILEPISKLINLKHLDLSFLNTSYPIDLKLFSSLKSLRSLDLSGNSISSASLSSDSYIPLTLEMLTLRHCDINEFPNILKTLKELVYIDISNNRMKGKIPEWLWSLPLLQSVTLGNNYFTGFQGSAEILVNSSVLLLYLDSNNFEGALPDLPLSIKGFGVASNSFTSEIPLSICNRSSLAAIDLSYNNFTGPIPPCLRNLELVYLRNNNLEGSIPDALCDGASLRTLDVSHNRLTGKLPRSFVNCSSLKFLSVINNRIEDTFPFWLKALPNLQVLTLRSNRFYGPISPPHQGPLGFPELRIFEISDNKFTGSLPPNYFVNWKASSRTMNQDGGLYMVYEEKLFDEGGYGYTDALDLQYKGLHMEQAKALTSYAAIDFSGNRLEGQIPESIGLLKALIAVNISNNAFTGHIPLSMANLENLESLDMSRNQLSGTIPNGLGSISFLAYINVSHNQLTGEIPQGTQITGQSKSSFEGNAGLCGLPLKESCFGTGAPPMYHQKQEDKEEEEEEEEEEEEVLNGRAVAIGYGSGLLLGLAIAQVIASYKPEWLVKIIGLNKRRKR

No constants are given. Whether binding was seen depends on the method and setting. In cells and extracts the contact can be indirect.

In this experiment the target is RLP23-GFP (Arabidopsis RLP23, GFP-tagged) (Arabidopsis thaliana) (UniProt O48849). In words: co-IP; proteins co-expressed in N. benthamiana leaves, isolated at 2 dai; total protein extract (150-200 mM NaCl, 50 mM Tris-HCl pH 7.5, 10 mM EDTA, 1.0% NP-40); GFP-trap A beads, 4 °C, 2 h; blots with anti-GFP and anti-HA.

With “XEG1-HA (Phytophthora sojae glycoside hydrolase 12 protein XEG1, C-terminal HA tag) (from UniProt G4ZHR2 20-241)”, the binding entry is given as “no binding”.
